Test results taken from article PMC6992704.
Results are given in words; binding and its absence hold for the method and conditions named. Binding seen in cells or lysates may run through a third protein. These calls come from enrichment with a bait or labelling near it, and not all partners need be listed.

Sequences of proteins named here, by UniProt entry; tags and fusion partners are left off.
UniProt Q07157: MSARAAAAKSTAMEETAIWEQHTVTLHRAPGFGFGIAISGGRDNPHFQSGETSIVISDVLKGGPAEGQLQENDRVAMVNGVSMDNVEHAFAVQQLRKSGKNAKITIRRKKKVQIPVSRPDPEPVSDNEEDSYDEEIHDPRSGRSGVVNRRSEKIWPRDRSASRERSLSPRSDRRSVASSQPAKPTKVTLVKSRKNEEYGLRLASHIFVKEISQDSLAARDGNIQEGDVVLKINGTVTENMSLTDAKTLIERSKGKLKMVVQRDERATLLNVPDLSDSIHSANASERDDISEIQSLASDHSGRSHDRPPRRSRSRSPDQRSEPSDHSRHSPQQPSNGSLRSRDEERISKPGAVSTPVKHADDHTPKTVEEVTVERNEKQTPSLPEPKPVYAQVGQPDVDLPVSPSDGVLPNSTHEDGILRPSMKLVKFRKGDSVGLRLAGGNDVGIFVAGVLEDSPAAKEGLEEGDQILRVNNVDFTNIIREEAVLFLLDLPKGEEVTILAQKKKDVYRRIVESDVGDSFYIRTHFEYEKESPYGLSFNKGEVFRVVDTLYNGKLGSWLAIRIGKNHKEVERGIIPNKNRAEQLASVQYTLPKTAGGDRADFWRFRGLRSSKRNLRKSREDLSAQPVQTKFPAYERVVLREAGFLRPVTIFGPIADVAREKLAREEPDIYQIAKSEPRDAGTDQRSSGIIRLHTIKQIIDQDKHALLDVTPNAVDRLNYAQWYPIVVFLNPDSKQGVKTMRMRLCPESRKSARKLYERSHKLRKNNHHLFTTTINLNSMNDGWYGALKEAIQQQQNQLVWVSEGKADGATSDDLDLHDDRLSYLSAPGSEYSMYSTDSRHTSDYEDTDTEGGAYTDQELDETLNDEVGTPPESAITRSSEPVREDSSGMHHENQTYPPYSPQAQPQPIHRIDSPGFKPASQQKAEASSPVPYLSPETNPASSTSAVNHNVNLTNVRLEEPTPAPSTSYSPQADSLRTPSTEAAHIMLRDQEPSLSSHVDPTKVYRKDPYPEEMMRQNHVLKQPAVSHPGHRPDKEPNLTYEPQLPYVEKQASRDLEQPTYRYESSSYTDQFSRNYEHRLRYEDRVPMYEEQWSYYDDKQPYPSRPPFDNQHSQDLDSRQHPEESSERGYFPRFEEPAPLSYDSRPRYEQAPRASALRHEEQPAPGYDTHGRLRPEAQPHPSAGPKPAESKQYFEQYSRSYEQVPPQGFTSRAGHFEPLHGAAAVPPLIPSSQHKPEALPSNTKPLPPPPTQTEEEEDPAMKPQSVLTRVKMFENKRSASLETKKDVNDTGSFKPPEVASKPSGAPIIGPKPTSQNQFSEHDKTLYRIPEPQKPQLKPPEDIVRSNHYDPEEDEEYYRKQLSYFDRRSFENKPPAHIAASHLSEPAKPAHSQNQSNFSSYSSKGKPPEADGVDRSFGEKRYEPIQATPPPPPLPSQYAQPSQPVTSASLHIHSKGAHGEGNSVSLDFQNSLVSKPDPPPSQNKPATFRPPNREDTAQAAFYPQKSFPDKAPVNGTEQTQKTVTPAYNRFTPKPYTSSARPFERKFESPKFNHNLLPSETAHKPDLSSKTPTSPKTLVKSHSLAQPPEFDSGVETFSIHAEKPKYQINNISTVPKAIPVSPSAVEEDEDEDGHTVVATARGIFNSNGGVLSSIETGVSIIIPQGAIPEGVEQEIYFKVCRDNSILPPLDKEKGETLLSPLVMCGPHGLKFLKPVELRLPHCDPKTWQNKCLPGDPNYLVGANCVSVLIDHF
UniProt O35973: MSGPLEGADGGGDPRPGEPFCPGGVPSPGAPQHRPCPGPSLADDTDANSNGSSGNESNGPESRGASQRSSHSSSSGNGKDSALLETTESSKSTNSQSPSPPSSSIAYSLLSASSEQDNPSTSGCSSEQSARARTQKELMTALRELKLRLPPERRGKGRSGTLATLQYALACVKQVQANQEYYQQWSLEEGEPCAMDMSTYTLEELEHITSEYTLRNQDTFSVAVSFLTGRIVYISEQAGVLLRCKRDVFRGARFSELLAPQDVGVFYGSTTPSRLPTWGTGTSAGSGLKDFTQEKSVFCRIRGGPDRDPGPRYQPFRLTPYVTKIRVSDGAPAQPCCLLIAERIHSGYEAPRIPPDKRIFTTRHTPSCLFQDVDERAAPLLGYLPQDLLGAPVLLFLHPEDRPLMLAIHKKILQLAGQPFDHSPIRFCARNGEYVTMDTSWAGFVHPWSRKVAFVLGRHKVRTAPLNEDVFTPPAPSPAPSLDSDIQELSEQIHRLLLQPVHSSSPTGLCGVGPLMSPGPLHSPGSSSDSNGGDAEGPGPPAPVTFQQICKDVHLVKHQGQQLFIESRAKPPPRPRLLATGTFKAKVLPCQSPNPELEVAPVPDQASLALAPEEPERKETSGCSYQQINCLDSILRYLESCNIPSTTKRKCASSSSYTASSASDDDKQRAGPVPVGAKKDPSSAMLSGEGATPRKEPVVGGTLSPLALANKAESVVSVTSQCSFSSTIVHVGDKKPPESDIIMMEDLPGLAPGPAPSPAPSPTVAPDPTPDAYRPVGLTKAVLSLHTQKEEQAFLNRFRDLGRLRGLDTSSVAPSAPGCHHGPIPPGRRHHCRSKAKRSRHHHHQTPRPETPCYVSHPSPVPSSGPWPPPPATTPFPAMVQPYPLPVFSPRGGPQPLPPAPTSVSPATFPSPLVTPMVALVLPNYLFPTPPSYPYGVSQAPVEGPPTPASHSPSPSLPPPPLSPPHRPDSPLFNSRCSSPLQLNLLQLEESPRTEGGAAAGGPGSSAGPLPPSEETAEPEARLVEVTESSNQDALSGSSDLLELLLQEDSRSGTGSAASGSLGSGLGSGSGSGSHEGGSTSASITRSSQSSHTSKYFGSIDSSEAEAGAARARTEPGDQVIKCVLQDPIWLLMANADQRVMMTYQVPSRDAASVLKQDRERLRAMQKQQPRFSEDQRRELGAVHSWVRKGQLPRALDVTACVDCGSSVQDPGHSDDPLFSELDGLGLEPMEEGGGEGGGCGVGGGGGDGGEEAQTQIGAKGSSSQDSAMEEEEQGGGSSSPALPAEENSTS

Molecular target: HA-tagged TJP1 (tight junction protein 1), adenoviral (human) (UniProt Q07157)
Assay: affinity purification with mass spectrometry; immunoprecipitates of TJP1 from mouse primary hepatocytes cultured in a collagen sandwich (methods: hepatocytes infected with HA-TJP1 adenovirus; results: endogenous TJP1); electrospray ionization tandem MS, Thermo LTQ Orbitrap

binding: binds
Substance: endogenous PER1 (period circadian regulator 1) (from UniProt O35973 1-1291)
